For part of these data: A negative result means that nothing was seen under these conditions. For part of these data: Tags and fusion partners may be left off the protein sequences shown. For part of these data: For at least one entry, the source does not settle the construct or the ends of the probe.
Experiments:
Test in all cases: enzyme reaction in vitro
[1] = target: T1, Human RNase 4 (hRNase 4) (Homo sapiens) (UniProt P34096); conditions: purified recombinant protein
T1 sequence: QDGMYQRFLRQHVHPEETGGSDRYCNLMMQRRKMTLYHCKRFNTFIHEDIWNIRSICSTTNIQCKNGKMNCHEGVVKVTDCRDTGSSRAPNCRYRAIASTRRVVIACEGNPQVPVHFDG

Chains of the proteins cited; added tags and fusions are not shown. Lines headed by an entry give the natural chain unless they say otherwise; changes in a name come on top.
UniProt P06855: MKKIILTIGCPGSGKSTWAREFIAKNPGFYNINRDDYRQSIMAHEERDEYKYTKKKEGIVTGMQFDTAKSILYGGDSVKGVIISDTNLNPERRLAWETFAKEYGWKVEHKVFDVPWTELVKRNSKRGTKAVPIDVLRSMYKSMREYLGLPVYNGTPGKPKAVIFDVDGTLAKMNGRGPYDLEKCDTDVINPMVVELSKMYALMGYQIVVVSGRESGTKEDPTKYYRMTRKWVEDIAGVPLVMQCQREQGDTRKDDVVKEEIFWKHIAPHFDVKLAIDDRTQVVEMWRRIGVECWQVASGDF

[2] = target: T2, RNase T1 (Aspergillus oryzae) (UniProt P00651); conditions: purified recombinant protein
T2 sequence (looked up, limits assumed): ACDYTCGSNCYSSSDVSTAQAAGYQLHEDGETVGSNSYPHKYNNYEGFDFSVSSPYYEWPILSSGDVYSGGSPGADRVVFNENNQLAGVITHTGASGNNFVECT

RNase A = target: T3, RNase A (UniProt P61823); conditions: variable 3'-recessed and overhang products; 300 mM NaCl; purified native protein; DNA:RNA hybrid
T3 sequence (looked up, limits assumed): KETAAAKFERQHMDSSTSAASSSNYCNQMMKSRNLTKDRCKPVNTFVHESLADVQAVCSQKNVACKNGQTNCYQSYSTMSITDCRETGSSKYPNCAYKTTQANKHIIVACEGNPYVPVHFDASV

[3] = target: T4, RNase MC1 (Momordica charantia) (UniProt P23540); conditions: hybrid protected; 3' overhang products; NEB r1.1 with T4 PNK; purified recombinant protein; DNA:RNA hybrid
T4 sequence (looked up, limits assumed): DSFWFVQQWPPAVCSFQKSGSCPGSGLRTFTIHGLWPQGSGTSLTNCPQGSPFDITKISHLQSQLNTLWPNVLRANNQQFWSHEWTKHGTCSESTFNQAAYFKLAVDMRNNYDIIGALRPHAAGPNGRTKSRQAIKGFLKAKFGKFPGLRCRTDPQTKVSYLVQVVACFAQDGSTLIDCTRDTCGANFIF

RNase If = target: T5, RNase If (UniProt P21338); conditions: variable 3'-recessed and overhang products; NEB buffer 3; purified recombinant protein; DNA:RNA hybrid
T5 sequence (looked up, limits assumed): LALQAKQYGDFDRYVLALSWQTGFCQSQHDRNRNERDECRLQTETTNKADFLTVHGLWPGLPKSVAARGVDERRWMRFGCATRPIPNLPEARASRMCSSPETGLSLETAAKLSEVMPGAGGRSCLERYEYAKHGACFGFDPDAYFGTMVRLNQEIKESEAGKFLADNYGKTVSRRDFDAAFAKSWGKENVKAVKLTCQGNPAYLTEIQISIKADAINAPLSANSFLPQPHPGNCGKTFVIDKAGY

[4] = target: T4 polynucleotide kinase (T4 PNK) (Enterobacteria phage T4) (UniProt P06855); conditions: 3' end 2',3'-cyclic phosphate or 3'-phosphate; cyclic phosphate/3'-phosphate ends converted to 2',3'-hydroxyl; NEBuffer 1, 37 C 30 min with hRNase 4; purified recombinant protein

AAAAAAAAAAAAAUGAAAAAAAAAA [UG oligo] was tested, and the “activity on this sequence” value ([1]; cleaved between U and G, NEBuffer 1, 37 C) was “active”.

In the case of AAAAAAAAUCAAAAA [UC oligo], the “activity on this sequence” value ([1]; not cleaved at any tested concentration) is reported as “not active”.

In the case of “GGGGCUUGCUUGUUCUUUUUGCAGAAGCUCAGAAUAAACGCUCAACUUUGGCACCAUGGGAGUGCACGAGUGUCCCGCGUGGUUGUGGUUGCUGCUGUCGCUCUUGAGCCUCCCACUGGGACUGCCUGUGCUGGGGGCACCACCCAGAUUGAUCUGCGACUCACGGGUACUUGAGAGGUACCUUCUUGAAGCCAAAGAAGCCGAAAACAUCACAACCGGAUGCGCCGAGCACUGCUCCCUCAAUGAGAACAUUACUGUACCGGAUACAAAGGUCAAUUUCUAUGCAUGGAAGAGAAUGGAAGUAGGACAGCAGGCCGUCGAAGUGUGGCAGGGGCUCGCGCUUUUGUCGGAGGCGGUGUUGCGGGGUCAGGCCCUCCUCGUCAACUCAUCACAGCCGUGGGAGCCCCUCCAACUUCAUGUCGAUAAAGCGGUGUCGGGGCUCCGCAGCUUGACGACGUUGCUUCGGGCUCUGGGCGCACAAAAGGAGGCUAUUUCGCCGCCUGACGCGGCCUCCGCGGCACCCCUCCGAACGAUCACCGCGGACACGUUUAGGAAGCUUUUUAGAGUGUACAGCAAUUUCCUCCGCGGAAAGCUGAAAUUGUAUACUGGUGAAGCGUGUAGGACAGGGGAUCGCUAGGACUGACUAGGAUCUGGUUACCACUAAACCAGCCUCAAGAACACCCGAAUGGAGUCUCUAAGCUACAUAAUACCAACUUACACUUUACAAAAUGUUGUCCCCCAAAAUGUAGCCAUUCGUAUCUGCUCCUAAUAAAAAGAAAGUUUCUUCACAUUCUAGCUAGC [Epo mRNA (U)]”, the “activity on this sequence” value ([2]; 50-61% coverage across Epo mRNAs) is reported as “active” and the “activity on this sequence” value ([1]; 73-87% coverage across Epo mRNAs) is reported as “active”.

For “GGGGCUUGCUUGUUCUUUUUGCAGAAGCUCAGAAUAAACGCUCAACUUUGGCACCAUGGGAGUGCACGAGUGUCCCGCGUGGUUGUGGUUGCUGCUGUCGCUCUUGAGCCUCCCACUGGGACUGCCUGUGCUGGGGGCACCACCCAGAUUGAUCUGCGACUCACGGGUACUUGAGAGGUACCUUCUUGAAGCCAAAGAAGCCGAAAACAUCACAACCGGAUGCGCCGAGCACUGCUCCCUCAAUGAGAACAUUACUGUACCGGAUACAAAGGUCAAUUUCUAUGCAUGGAAGAGAAUGGAAGUAGGACAGCAGGCCGUCGAAGUGUGGCAGGGGCUCGCGCUUUUGUCGGAGGCGGUGUUGCGGGGUCAGGCCCUCCUCGUCAACUCAUCACAGCCGUGGGAGCCCCUCCAACUUCAUGUCGAUAAAGCGGUGUCGGGGCUCCGCAGCUUGACGACGUUGCUUCGGGCUCUGGGCGCACAAAAGGAGGCUAUUUCGCCGCCUGACGCGGCCUCCGCGGCACCCCUCCGAACGAUCACCGCGGACACGUUUAGGAAGCUUUUUAGAGUGUACAGCAAUUUCCUCCGCGGAAAGCUGAAAUUGUAUACUGGUGAAGCGUGUAGGACAGGGGAUCGCUAGGACUGACUAGGAUCUGGUUACCACUAAACCAGCCUCAAGAACACCCGAAUGGAGUCUCUAAGCUACAUAAUACCAACUUACACUUUACAAAAUGUUGUCCCCCAAAAUGUAGCCAUUCGUAUCUGCUCCUAAUAAAAAGAAAGUUUCUUCACAUUCUAGCUAGC [Epo mRNA (mo5U)]”, the “activity on this sequence” value ([2]; all U replaced by 5-methoxyuridine, 50-61% coverage across Epo mRNAs) was “active” and the “activity on this sequence” value ([1]; all U replaced by 5-methoxyuridine, 73-87% coverage across Epo mRNAs) was “active”.

In the case of “GGGACTCTAACTATGTCAATCGCCGTGATGTAATTATCGC / ATTGACATAGTTAGAGTCCC [40mer RNA with 20mer DNA probe]”, the “activity on this sequence” value ([2]; hybrid protected, 3' overhang products, NEB r1.1 with T4 PNK, DNA:RNA hybrid) is reported as “active”, the “activity on this sequence” value (RNase A) is reported as “active” and the “activity on this sequence” value [3] is reported as “active”. The “activity on this sequence” value ([1]; hybrid protected, cleavage at first site after the duplex, NEB r1.1 with T4 PNK, DNA:RNA hybrid) was “active” and the “activity on this sequence” value (RNase If) was “active”.

In the case of AAAAAAAAAAAGUAAAAAAAAA [GU/UA oligo], the “activity on this sequence” value ([1]; cleaved at UA) is reported as “active”.

With AAAAAAAAAAAAAUAAAAAAAAAAA [UA oligo] the “activity on this sequence” value ([1]; cleaved, NEBuffer 1 (10 mM MgCl2), 37 C 1 h, pooled oligos, LC-MS/MS) was “active”.

For AAAAAACGAAAA [CG oligo], the “activity on this sequence” value ([1]; not cleaved) was “not active”.

AAAAAAAAGCAAAAA [GC/CA oligo] was tested, and the “activity on this sequence” value ([1]; CA-containing, not cleaved) was “not active”.

For “AGGGCTTGCTTGTTCTTTTTGCAGAAGCTCAGAAT / GAGCTTCTGCAAAAAGAACAAGCAAGCCCT [EPO mRNA 5' end with 30mer DNA probe]”, the “activity on this sequence” value ([1]; 5' m7GpppAm cap, 35mer isolated, cleavage prevented within the hybrid, cuts at first UR site after it, 1 M urea, label: 5' biotin on probe, DNA:RNA hybrid) was “active”.

In the case of AAAAAAAAAAACCAAAAAAAAA [CC oligo], the “activity on this sequence” value ([1]; not cleaved) is reported as “not active”.

With “AAAAAAAAAAAAAU [5' cleavage product of SEQ 5]” the “activity on this sequence” value [4] was “active”.

AAGAGAGAUAGAGAA [single-site 15mer] was tested, and the “activity on this sequence” value ([1]; robust cleavage, inhibited by human placental RNase inhibitor) was “active”.

AAAAAAAACAAAAAA [AC/CA oligo] was tested, and the “activity on this sequence” value ([1]; not cleaved) was “not active”.

“GGGGCUUGCUUGUUCUUUUUGCAGAAGCUCAGAAUAAACGCUCAACUUUGGCACCAUGGGAGUGCACGAGUGUCCCGCGUGGUUGUGGUUGCUGCUGUCGCUCUUGAGCCUCCCACUGGGACUGCCUGUGCUGGGGGCACCACCCAGAUUGAUCUGCGACUCACGGGUACUUGAGAGGUACCUUCUUGAAGCCAAAGAAGCCGAAAACAUCACAACCGGAUGCGCCGAGCACUGCUCCCUCAAUGAGAACAUUACUGUACCGGAUACAAAGGUCAAUUUCUAUGCAUGGAAGAGAAUGGAAGUAGGACAGCAGGCCGUCGAAGUGUGGCAGGGGCUCGCGCUUUUGUCGGAGGCGGUGUUGCGGGGUCAGGCCCUCCUCGUCAACUCAUCACAGCCGUGGGAGCCCCUCCAACUUCAUGUCGAUAAAGCGGUGUCGGGGCUCCGCAGCUUGACGACGUUGCUUCGGGCUCUGGGCGCACAAAAGGAGGCUAUUUCGCCGCCUGACGCGGCCUCCGCGGCACCCCUCCGAACGAUCACCGCGGACACGUUUAGGAAGCUUUUUAGAGUGUACAGCAAUUUCCUCCGCGGAAAGCUGAAAUUGUAUACUGGUGAAGCGUGUAGGACAGGGGAUCGCUAGGACUGACUAGGAUCUGGUUACCACUAAACCAGCCUCAAGAACACCCGAAUGGAGUCUCUAAGCUACAUAAUACCAACUUACACUUUACAAAAUGUUGUCCCCCAAAAUGUAGCCAUUCGUAUCUGCUCCUAAUAAAAAGAAAGUUUCUUCACAUUCUAGCUAGC [Epo mRNA (m1Y)]” was tested, and the “activity on this sequence” value ([2]; all U replaced by 1-methylpseudouridine, 50-61% coverage across Epo mRNAs) was “active” and the “activity on this sequence” value ([1]; all U replaced by 1-methylpseudouridine, 73-87% coverage across Epo mRNAs) was “active”.

In the case of AAAAAAAAAAAAAUUAAAAAAAAAA [UU/UA oligo], the “activity on this sequence” value ([1]; cleaved, UU not conclusive because UA also present) is reported as “active”.

AAAAAACUAAAA [CU/UA oligo] was tested, and the “activity on this sequence” value ([1]; cleaved, CU not conclusive because UA also present) was “active”.

— patent US20230287489
